Hit rate of the full screen: of about 22,000 compounds, about 1,100 (5%) were called active. Inconclusive means that the source gave no clear call. Such entries were picked first, then a sample of the others. Rule as the data show it: active = activity score above about 55%; inconclusive = no clear call, values can overlap the other calls; inactive = below that.
assay: inhibitors of intracellular Trypanosoma cruzi, primary screen, cell-based, plate reader, single point, set 2 (AID 651903); conditions: intracellular Trypanosoma cruzi in host cells, at 5.01 µM, active compounds read high;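 also: parasites and compound incubated about four days before reading; 0% = median of neutral control wells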

SMILES	activity score (inhibition)
C[C@H]1CN([C@@H](C)CO)C(=O)Cc2cc(NC(=O)Nc3ccc(F)cc3)ccc2O[C@@H]1CN(C)Cc1ccc(Cl)c(Cl)c1	inconclusive: 56.4%
C[C@H]1CN([C@@H](C)CO)C(=O)Cc2cc(NS(C)(=O)=O)ccc2O[C@@H]1CN(C)Cc1ccc(-c2ccccc2)cc1	inconclusive: 57.3%
C[C@@H]1CN([C@H](C)CO)C(=O)c2cccc(NC(=O)c3ccc(-c4nccs4)cc3)c2O[C@H]1CN(C)C(=O)Nc1cccc2ccccc12	inactive: -11.4%
C[C@@H]1CN([C@H](C)CO)C(=O)c2cc(NS(=O)(=O)c3ccc(Cl)cc3)ccc2O[C@H]1CN(C)Cc1ccc(Cl)c(Cl)c1	inconclusive: 36.8%
C[C@H](CO)N1C[C@H](C)[C@H](CN(C)Cc2ccc(-c3ccccc3)cc2)Oc2c(NC(=O)Nc3ccc4c(c3)OCO4)cccc2C1=O	inconclusive: 55.7%
C[C@H]1CN([C@@H](C)CO)C(=O)c2cccc(NC(=O)c3ccc(-c4nccs4)cc3)c2O[C@@H]1CN(C)C(=O)Nc1ccc(C(F)(F)F)cc1	inactive: -8.3%
Cc1cc(C(=O)Nc2cccc3c2O[C@@H](CN(C)C(=O)NC2CCCCC2)[C@H](C)CN([C@H](C)CO)C3=O)n(C)n1	inactive: 1.82%
C[C@@H]1CN([C@H](C)CO)C(=O)c2cccc(NC(=O)CCCCCC(=O)Nc3ccccc3N)c2O[C@@H]1CN(C)S(=O)(=O)c1ccc(Cl)cc1	inconclusive: 57.9%
COc1ccc(NC(=O)Nc2ccc3c(c2)CC(=O)N([C@H](C)CO)C[C@@H](C)[C@H](CN(C)Cc2ccc(C(F)(F)F)cc2)O3)cc1	inconclusive: 56.9%
Cc1ccc(S(=O)(=O)Nc2ccc3c(c2)C(=O)N([C@@H](C)CO)C[C@H](C)[C@H](CN(C)C)O3)cc1	inactive: -7.52%
C[C@@H]1CN([C@H](C)CO)C(=O)c2cccc(NC(=O)C3CC3)c2O[C@@H]1CN(C)Cc1ccc(Cl)c(Cl)c1	inactive: 14.3%
C[C@@H]1CN([C@H](C)CO)C(=O)Cc2cc(NC(=O)Cc3ccccc3)ccc2O[C@@H]1CN(C)Cc1ccc(Oc2ccccc2)cc1	inconclusive: 58.1%
COc1ccc(CN(C)C[C@H]2Oc3ccc(NS(=O)(=O)c4ccc(Cl)cc4)cc3CC(=O)N([C@@H](C)CO)C[C@H]2C)cc1	inconclusive: 55.2%
C[C@@H]1CN([C@H](C)CO)C(=O)Cc2cc(NC(=O)Nc3ccc(C(F)(F)F)cc3)ccc2O[C@@H]1CN(C)Cc1ccc(C(F)(F)F)cc1	active: 68%
COc1ccc(NC(=O)N(C)C[C@@H]2Oc3ncc(-c4cc5ccccc5o4)cc3C(=O)N([C@H](C)CO)C[C@@H]2C)cc1	inconclusive: 55.4%
COc1ccc(S(=O)(=O)N(C)C[C@H]2Oc3c(NC(=O)Nc4ccc(C(F)(F)F)cc4)cccc3C(=O)N([C@H](C)CO)C[C@@H]2C)cc1	inconclusive: 59.1%
C[C@@H]1CN([C@H](C)CO)C(=O)Cc2cc(NC(=O)C3CCCCC3)ccc2O[C@@H]1CN(C)Cc1ccc(-c2ccccc2)cc1	inconclusive: 58.7%

Structures shown so far containing fluorine:
SMILES	activity score (inhibition)
C[C@H]1CN([C@@H](C)CO)C(=O)Cc2cc(NC(=O)Nc3ccc(F)cc3)ccc2O[C@@H]1CN(C)Cc1ccc(Cl)c(Cl)c1	inconclusive: 56.4%
C[C@H]1CN([C@@H](C)CO)C(=O)c2cccc(NC(=O)c3ccc(-c4nccs4)cc3)c2O[C@@H]1CN(C)C(=O)Nc1ccc(C(F)(F)F)cc1	inactive: -8.3%
COc1ccc(NC(=O)Nc2ccc3c(c2)CC(=O)N([C@H](C)CO)C[C@@H](C)[C@H](CN(C)Cc2ccc(C(F)(F)F)cc2)O3)cc1	inconclusive: 56.9%
C[C@@H]1CN([C@H](C)CO)C(=O)Cc2cc(NC(=O)Nc3ccc(C(F)(F)F)cc3)ccc2O[C@@H]1CN(C)Cc1ccc(C(F)(F)F)cc1	active: 68%
COc1ccc(S(=O)(=O)N(C)C[C@H]2Oc3c(NC(=O)Nc4ccc(C(F)(F)F)cc4)cccc3C(=O)N([C@H](C)CO)C[C@@H]2C)cc1	inconclusive: 59.1%

Next part.

SMILES	activity score (inhibition)
C[C@@H]1CN([C@H](C)CO)C(=O)c2cccc(NC(=O)Nc3ccccc3)c2O[C@H]1CN(C)Cc1ccc(Cl)c(Cl)c1	inconclusive: 55.8%
C[C@H](CO)N1C[C@H](C)[C@H](CN(C)S(=O)(=O)c2cccc(F)c2)Oc2ncc(/C=C/c3ccccc3)cc2C1=O	inconclusive: 57.1%
C[C@H](CO)N1C[C@H](C)[C@@H](CN(C)Cc2ccc(C(=O)Nc3ccccc3N)cc2)Oc2c(cccc2N(C)C)C1=O	inactive: 6.47%
COc1ccc(NC(=O)Nc2ccc3c(c2)CC(=O)N([C@H](C)CO)C[C@H](C)[C@H](CN(C)Cc2ccc(C(=O)Nc4ccccc4N)cc2)O3)cc1	inconclusive: 59.3%
C[C@@H]1CN([C@H](C)CO)C(=O)c2cc(NS(=O)(=O)c3cccs3)ccc2O[C@@H]1CN(C)Cc1ccc(-c2ccccc2)cc1	inconclusive: 44.5%
Cc1noc(C)c1S(=O)(=O)Nc1ccc2c(c1)C(=O)N([C@H](C)CO)C[C@H](C)[C@@H](CN(C)Cc1ccc(C(=O)Nc3ccccc3N)cc1)OCCCC[C@@H](C)O2	inconclusive: 57.4%
COc1ccc(NC(=O)Nc2ccc3c(c2)C(=O)N([C@@H](C)CO)C[C@H](C)[C@@H](CN(C)Cc2ccc(-c4ccccc4)cc2)O3)cc1	inconclusive: 52.1%
C[C@H](CO)N1C[C@H](C)[C@H](CN(C)C(=O)NC2CCCCC2)Oc2ncc(-c3cccc(C(F)(F)F)c3)cc2C1=O	inconclusive: 60.5%
C[C@H]1CN([C@@H](C)CO)C(=O)c2cccc(NC(=O)c3nc4ccccc4s3)c2O[C@H]1CN(C)S(=O)(=O)c1ccc(F)cc1	active: 73.9%
C[C@H](CO)N1C[C@H](C)[C@H](CN(C)Cc2ccc3c(c2)OCO3)Oc2ccc(NC(=O)Nc3ccccc3)cc2C1=O	inconclusive: 1.21%
C[C@@H]1CN([C@@H](C)CO)C(=O)c2cc(NS(=O)(=O)c3cccs3)ccc2O[C@H]1CN(C)S(=O)(=O)c1ccc(F)cc1	active: 62.3%
Cc1ccc(S(=O)(=O)N(C)C[C@@H]2Oc3ncc(C#Cc4cccc(F)c4)cc3C(=O)N([C@H](C)CO)C[C@@H]2C)cc1	inconclusive: 56.2%
C[C@@H]1CCCCO[C@H](CN(C)C(=O)CCCN(C)C)[C@@H](C)CN([C@H](C)CO)C(=O)c2cc(NC(=O)Nc3ccccc3)ccc2O1	inactive: 23%
C[C@@H]1CN([C@@H](C)CO)C(=O)c2cccc(NC(=O)c3nc4ccccc4s3)c2O[C@@H]1CN(C)Cc1ccc(C(=O)Nc2ccccc2N)cc1	inconclusive: 56.2%
Cc1ccc(S(=O)(=O)N(C)C[C@H]2Oc3ccc(NS(=O)(=O)c4ccc(Cl)cc4)cc3CC(=O)N([C@@H](C)CO)C[C@H]2C)cc1	inconclusive: 55.2%
COc1ccc(S(=O)(=O)N(C)C[C@@H]2Oc3ncc(C#Cc4ccccc4)cc3C(=O)N([C@H](C)CO)C[C@@H]2C)cc1	inconclusive: 55.8%
